In the supplement of paper PMC10849652:
This is one part of the list.

Amino acid sequences for entries named in this document (tags omitted). A change or cut given only in a name is not applied to a line headed by its entry.
UniProt P53680: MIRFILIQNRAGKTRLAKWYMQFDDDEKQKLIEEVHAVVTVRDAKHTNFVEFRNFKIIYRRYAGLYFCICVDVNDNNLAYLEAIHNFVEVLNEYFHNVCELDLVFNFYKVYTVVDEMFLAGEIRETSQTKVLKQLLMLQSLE
UniProt O14617: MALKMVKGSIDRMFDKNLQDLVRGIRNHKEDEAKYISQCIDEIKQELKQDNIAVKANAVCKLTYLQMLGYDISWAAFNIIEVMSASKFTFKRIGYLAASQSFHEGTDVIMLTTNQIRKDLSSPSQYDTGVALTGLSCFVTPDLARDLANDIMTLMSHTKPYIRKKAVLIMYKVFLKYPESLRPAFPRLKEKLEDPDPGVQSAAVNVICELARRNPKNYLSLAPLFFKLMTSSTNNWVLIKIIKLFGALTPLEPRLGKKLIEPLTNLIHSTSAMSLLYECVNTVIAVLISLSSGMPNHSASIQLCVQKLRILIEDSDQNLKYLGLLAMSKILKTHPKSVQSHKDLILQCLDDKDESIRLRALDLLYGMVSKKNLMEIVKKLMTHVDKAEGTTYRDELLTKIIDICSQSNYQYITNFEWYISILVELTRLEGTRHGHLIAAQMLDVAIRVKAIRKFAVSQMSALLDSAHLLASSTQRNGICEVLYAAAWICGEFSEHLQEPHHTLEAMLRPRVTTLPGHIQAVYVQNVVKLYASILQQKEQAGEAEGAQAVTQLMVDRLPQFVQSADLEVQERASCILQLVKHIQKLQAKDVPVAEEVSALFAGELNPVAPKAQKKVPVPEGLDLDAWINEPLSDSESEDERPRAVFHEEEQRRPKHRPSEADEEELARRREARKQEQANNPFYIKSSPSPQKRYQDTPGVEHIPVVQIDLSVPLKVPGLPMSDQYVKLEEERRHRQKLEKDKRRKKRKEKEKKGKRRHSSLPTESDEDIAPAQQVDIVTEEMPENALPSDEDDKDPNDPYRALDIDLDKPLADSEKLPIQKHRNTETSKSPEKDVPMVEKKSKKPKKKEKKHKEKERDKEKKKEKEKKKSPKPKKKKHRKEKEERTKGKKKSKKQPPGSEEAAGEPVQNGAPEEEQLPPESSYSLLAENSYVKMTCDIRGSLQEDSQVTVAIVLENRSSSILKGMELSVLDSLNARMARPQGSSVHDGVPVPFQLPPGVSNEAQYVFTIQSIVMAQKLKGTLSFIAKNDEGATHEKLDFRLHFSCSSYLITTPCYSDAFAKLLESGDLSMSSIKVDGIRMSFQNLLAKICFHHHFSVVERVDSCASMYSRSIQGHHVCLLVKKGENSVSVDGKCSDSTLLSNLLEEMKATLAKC
UniProt Q6NXT1: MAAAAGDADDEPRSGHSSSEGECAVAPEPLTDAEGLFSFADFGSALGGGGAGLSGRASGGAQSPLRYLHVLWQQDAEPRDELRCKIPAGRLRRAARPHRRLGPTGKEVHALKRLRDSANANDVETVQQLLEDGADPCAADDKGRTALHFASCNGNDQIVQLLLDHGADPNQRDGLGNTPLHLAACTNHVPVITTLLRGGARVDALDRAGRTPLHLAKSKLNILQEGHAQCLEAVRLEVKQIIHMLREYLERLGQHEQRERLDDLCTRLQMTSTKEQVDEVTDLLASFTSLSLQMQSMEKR
UniProt Q9NXR5: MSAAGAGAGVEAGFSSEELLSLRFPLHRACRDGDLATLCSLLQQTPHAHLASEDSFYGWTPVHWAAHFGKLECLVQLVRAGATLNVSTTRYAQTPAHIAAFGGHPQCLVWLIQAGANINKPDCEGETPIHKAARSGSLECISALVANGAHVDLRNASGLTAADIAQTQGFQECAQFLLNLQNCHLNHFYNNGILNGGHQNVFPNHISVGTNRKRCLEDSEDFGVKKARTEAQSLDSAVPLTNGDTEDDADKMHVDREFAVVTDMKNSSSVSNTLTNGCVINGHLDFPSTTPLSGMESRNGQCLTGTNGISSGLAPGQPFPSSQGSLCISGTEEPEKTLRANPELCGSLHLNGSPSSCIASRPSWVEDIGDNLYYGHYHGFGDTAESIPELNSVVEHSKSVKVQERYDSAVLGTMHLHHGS
UniProt Q92625: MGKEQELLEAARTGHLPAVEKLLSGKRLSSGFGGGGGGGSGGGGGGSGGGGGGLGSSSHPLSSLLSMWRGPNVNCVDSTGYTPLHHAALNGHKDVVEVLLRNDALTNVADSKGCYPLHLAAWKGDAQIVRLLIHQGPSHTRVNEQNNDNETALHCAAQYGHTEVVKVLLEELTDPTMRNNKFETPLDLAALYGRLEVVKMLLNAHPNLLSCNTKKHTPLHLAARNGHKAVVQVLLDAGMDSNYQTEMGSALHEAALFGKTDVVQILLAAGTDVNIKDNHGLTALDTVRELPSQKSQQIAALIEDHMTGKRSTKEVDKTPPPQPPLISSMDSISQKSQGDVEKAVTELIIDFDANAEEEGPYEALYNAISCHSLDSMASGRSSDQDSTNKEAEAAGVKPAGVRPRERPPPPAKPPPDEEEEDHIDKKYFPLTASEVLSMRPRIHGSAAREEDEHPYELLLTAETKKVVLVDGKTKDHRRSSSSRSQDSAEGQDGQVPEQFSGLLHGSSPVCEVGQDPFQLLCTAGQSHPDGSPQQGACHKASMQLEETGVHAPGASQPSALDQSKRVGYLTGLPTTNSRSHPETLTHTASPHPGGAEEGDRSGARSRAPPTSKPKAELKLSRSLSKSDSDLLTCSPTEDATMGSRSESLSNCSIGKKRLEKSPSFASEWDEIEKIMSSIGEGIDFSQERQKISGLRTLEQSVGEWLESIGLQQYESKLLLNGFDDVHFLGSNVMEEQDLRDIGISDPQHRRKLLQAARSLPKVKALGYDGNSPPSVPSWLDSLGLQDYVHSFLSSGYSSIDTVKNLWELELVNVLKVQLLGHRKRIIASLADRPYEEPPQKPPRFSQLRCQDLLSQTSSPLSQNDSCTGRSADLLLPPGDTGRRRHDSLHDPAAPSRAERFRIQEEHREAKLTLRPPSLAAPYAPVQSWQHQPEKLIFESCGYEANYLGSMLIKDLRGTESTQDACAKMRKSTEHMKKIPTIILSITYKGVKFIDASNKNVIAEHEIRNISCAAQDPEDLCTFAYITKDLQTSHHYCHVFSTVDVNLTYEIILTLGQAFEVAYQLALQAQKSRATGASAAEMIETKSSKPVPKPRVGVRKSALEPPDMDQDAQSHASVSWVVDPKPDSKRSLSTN
UniProt Q92572: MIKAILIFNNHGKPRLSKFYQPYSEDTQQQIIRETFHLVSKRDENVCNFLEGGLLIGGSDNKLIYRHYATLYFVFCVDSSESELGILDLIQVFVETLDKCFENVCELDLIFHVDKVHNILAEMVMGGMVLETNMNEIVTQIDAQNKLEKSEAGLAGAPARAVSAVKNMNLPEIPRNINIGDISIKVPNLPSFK
UniProt Q9NXW9: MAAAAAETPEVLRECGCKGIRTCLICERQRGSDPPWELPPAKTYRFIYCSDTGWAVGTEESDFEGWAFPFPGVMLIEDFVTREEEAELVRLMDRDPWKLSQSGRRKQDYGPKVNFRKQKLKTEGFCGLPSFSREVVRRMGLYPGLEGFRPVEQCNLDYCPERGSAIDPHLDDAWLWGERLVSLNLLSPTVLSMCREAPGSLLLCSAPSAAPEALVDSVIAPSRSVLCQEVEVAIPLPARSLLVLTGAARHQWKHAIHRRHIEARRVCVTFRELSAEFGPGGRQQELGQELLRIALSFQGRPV
UniProt Q96Q83: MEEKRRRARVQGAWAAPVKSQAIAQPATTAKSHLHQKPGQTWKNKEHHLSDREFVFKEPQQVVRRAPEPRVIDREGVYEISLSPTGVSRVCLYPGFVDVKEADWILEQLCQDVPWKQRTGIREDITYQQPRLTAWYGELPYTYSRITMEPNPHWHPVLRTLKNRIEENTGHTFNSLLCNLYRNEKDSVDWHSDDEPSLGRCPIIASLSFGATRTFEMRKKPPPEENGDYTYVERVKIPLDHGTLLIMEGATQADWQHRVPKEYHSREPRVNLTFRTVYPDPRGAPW
UniProt Q96NW4, whole entry, looked up: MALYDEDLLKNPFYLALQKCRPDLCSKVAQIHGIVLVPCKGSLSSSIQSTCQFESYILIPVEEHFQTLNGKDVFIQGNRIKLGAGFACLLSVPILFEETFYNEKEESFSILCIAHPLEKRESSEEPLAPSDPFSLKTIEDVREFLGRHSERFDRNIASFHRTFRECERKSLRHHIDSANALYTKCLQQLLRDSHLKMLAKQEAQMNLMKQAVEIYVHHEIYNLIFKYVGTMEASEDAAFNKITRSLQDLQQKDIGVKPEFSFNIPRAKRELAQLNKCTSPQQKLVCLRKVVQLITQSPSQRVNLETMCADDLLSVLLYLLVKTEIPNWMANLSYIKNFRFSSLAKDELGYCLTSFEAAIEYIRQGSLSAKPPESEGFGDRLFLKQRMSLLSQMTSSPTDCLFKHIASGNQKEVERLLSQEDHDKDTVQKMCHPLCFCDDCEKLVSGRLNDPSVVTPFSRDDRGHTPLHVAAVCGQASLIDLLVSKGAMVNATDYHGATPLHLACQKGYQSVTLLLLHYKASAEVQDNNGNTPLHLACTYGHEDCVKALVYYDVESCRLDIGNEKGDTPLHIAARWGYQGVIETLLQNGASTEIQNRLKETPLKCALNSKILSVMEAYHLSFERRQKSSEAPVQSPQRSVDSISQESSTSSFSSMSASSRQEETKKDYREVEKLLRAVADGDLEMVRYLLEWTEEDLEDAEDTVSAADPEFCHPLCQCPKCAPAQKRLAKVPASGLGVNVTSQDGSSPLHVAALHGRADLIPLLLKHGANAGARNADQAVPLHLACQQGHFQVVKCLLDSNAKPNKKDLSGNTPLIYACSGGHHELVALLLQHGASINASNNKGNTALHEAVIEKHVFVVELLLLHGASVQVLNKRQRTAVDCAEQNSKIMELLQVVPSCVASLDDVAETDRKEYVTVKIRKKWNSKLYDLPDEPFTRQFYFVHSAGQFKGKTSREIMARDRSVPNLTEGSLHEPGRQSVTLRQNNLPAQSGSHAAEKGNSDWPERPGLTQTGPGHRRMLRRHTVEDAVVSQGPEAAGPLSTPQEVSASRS
UniProt Q6NS38: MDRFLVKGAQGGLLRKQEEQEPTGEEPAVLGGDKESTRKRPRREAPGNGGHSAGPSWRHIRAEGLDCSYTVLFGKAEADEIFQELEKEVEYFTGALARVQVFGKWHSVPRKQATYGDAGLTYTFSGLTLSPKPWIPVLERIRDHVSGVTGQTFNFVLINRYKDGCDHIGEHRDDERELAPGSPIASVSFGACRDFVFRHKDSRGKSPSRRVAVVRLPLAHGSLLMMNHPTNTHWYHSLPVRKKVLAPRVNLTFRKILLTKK
UniProt Q3SY69: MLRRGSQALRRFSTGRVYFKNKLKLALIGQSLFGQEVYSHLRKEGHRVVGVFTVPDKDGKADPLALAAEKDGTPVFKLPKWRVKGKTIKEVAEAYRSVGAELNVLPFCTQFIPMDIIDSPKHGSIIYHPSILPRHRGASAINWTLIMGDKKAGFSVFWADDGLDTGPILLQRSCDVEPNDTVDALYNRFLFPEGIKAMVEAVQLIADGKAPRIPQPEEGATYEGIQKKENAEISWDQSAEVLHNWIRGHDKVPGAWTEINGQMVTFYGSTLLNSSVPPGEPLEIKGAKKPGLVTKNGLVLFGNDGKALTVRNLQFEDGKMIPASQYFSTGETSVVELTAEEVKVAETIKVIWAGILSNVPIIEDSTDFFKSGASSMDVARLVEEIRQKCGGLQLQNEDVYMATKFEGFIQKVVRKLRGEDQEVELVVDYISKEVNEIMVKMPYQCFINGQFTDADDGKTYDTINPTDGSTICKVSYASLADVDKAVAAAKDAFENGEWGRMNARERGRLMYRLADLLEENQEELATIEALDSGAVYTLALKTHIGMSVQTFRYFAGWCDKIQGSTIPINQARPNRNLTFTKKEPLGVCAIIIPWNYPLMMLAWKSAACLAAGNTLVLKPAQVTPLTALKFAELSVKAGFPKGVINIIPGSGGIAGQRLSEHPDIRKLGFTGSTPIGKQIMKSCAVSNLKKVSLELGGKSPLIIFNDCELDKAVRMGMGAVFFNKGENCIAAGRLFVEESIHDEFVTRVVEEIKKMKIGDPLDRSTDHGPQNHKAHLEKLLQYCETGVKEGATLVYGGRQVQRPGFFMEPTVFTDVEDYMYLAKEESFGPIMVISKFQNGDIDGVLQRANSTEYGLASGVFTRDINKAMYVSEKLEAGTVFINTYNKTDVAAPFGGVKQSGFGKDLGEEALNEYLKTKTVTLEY
UniProt P13716: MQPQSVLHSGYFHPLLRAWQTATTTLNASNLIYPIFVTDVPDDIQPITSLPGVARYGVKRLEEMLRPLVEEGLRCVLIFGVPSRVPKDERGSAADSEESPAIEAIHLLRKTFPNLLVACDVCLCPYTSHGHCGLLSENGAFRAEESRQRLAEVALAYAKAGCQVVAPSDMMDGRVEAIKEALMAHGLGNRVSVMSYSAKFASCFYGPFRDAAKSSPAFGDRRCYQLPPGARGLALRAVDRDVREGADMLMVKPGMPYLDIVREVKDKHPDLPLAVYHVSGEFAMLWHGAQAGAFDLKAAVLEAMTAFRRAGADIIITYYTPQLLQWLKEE

What was measured:
Test in all cases: log2 fold change, soluble protein after heating vs DMSO (PISA); higher = thermal stabilisation; K562 lysate, 10 uM; active = over 0.2 and 3.5 SD of the protein, either way, in both replicates (recomputed)
[1] = compound: NCC(=O)Nc1ccc(-n2nc(C(F)(F)F)cc2-c2ccc3c(ccc4ccccc43)c2)cc1
How it was run: (§1)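 Log-two fold change in thermal stability relative to solvent controls is reported from duplicates. For each sample, crude K562 extract from dounce-homogenised pellets in PBS pH 7.4 with 1 mM MgCl2, at 1 mg/mL protein, was treated with 10 μM compound for 30 min. Aliquots heated for 3 min across 48°C-58°C were pooled, brought to 0.5% NP-40 at 4°C and cleared at 21,000xg for 90 min. The supernatant was quantified by TMTpro 16plex LC-MS/MS with channel sums equalised.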

vorinostat = compound: O=C(CCCCCCC(=O)Nc1ccccc1)NO [vorinostat]
How it was run: as §1

silmitasertib = compound: O=C(O)c1ccc2c(c1)nc(Nc1cccc(Cl)c1)c1ccncc12 [silmitasertib]
How it was run: as §1

[2] = compound: O=C1NC(=O)C(c2cnc3ccccn23)=C1c1cn2c3c(cc(F)cc13)CN(C(=O)N1CCCCC1)CC2
How it was run: as §1

entospletinib = compound: c1cn2cc(-c3ccc4cn[nH]c4c3)nc(Nc3ccc(N4CCOCC4)cc3)c2n1 [entospletinib]
How it was run: as §1

Measured: log2 fold change

AP1B1 (UniProt Q10567)
inactive: [1] -0.031 | vorinostat 0.112 | silmitasertib -0.006 | [2] 0.001 | entospletinib 0.015

ALDH16A1 (UniProt Q8IZ83)
inactive: [1] -0.013 | vorinostat 0.035 | silmitasertib 0.015 | [2] -0.044 | entospletinib 0.025

AP2S1 (UniProt P53680)
inactive: [1] 0.012 | vorinostat -0.02 | silmitasertib 0.033 | [2] -0.018 | entospletinib 0.044

ANKRD46 (UniProt Q86W74)
inactive: [1] -0.012 | vorinostat -0.015 | silmitasertib -0.109 | [2] 0.058

AKT2 (UniProt P31751)
inactive: [1] -0.021 | vorinostat -0.175 | silmitasertib 0.011 | [2] -0.019 | entospletinib 0.008

ALG5 (UniProt Q9Y673)
inactive: [1] -0.057 | vorinostat 0.207 | silmitasertib -0.095 | [2] -0.018 | entospletinib -0.003

AP3D1 isoform 2 (UniProt O14617)
inactive: [1] 0.179 | silmitasertib 0.02
active: vorinostat -0.738

ANXA6 (UniProt P08133)
inactive: [1] 0.014 | vorinostat -0.016 | silmitasertib 0.018 | [2] -0.024 | entospletinib -0.017

ALDH6A1 (UniProt Q02252)
inactive: [1] -0.041 | vorinostat -0.046 | silmitasertib 0.042 | [2] 0.096 | entospletinib 0.035

AMIGO2 (UniProt Q86SJ2)
inactive: [1] -0.022

ANGEL2 (UniProt Q5VTE6)
inactive: [1] -0.013 | vorinostat 0.202 | silmitasertib -0.001 | [2] 0.044 | entospletinib -0.018

ANKHD1 isoform 6 (UniProt Q8IWZ3)
inactive: [1] -0.009 | vorinostat -0.139 | silmitasertib 0.025 | [2] 0.017 | entospletinib -0.018

AMZ2 (UniProt Q86W34)
inactive: [1] -0.009 | vorinostat 0.1 | silmitasertib -0.032 | [2] -0.031 | entospletinib -0.019

ALDOA (UniProt P04075)
inactive: [1] 0.012 | vorinostat 0.13 | silmitasertib -0.01 | [2] -0.01 | entospletinib 0.013

Retrieved one by one from the list above (two):
ALDOA (UniProt P04075)
inactive: [1] 0.012 | vorinostat 0.13 | silmitasertib -0.01 | [2] -0.01 | entospletinib 0.013

AMIGO2 (UniProt Q86SJ2)
inactive: [1] -0.022

(continued)

ANXA13 isoform 2 (UniProt P27216)
inactive: [1] -0.084 | vorinostat 0.004 | silmitasertib 0.024 | [2] 0.02

AP2A1 (UniProt O95782)
inactive: [1] 0.004 | vorinostat 0.013 | silmitasertib 0.036 | [2] 0.016 | entospletinib 0.026

ANKRD54 (UniProt Q6NXT1)
active: vorinostat -0.245
inactive: [1] 0.023 | silmitasertib 0.007 | [2] -0.076 | entospletinib -0.006

ANXA7 (UniProt P20073)
inactive: [1] 0.013 | vorinostat -0.044 | silmitasertib -0.003 | [2] 0.006 | entospletinib 0.018

ALG9 isoform 3 (UniProt Q9H6U8)
inactive: [1] 0.046 | vorinostat 0.13 | silmitasertib -0.07 | [2] 0 | entospletinib -0.009

ALDH9A1 isoform 3 (UniProt P49189)
inactive: [1] 0.002 | vorinostat 0.15 | silmitasertib -0.028 | [2] 0.03 | entospletinib 0.015

ANAPC16 (UniProt Q96DE5)
inactive: [1] -0.019 | vorinostat -0.11 | silmitasertib 0.005 | [2] 0.021 | entospletinib 0.146

ALDH4A1 (UniProt P30038)
inactive: [1] -0.103 | vorinostat -0.148 | silmitasertib 0.068 | [2] 0.006 | entospletinib -0.013

ANKRD10 (UniProt Q9NXR5)
active: vorinostat -0.589
inactive: [1] 0 | silmitasertib 0.037 | [2] -0.066

AP1M1 (UniProt Q9BXS5)
inactive: [1] 0 | vorinostat 0.099 | silmitasertib 0.012 | [2] -0.018 | entospletinib -0.006

ANKRD52 (UniProt Q8NB46)
inactive: [1] -0.043 | silmitasertib 0.063 | [2] -0.023 | entospletinib -0.057
active: vorinostat -0.491

ANKS1A (UniProt Q92625)
inactive: [1] -0.023 | vorinostat -0.095 | silmitasertib -0.009 | [2] 0.002 | entospletinib -0.006

ANAPC4 isoform 3 (UniProt Q9UJX5)
inactive: [1] -0.022 | vorinostat -0.038 | silmitasertib -0.006 | [2] -0.026 | entospletinib 0.014

ALS2 (UniProt Q96Q42)
inactive: [1] 0.035 | vorinostat -0.209 | silmitasertib 0.011 | [2] 0.024 | entospletinib 0.011

AP3S1 (UniProt Q92572)
inactive: [1] 0 | vorinostat 0.002 | silmitasertib -0.022 | [2] -0.045 | entospletinib 0.018

ALKBH4 (UniProt Q9NXW9)
active: vorinostat 0.264
inactive: [1] 0.061 | silmitasertib -0.032 | [2] -0.088 | entospletinib -0.012

ANXA1 (UniProt P04083)
active: vorinostat -0.255
inactive: [1] -0.013 | silmitasertib -0.007 | [2] -0.031 | entospletinib 0.011

ALKBH3 (UniProt Q96Q83)
inactive: [1] 0.006 | vorinostat 0.104 | silmitasertib -0.054 | [2] 0.003 | entospletinib -0.04

ANKRD27 (UniProt Q96NW4)
inactive: [1] -0.066 | silmitasertib -0.025 | [2] 0.022 | entospletinib 0.01
active: vorinostat -0.451

ANK3 (UniProt Q12955)
inactive: [1] -0.007 | vorinostat -0.095 | silmitasertib 0.004 | [2] 0.008 | entospletinib 0.005

ALKBH5 (UniProt Q6P6C2)
inactive: [1] 0.054 | vorinostat 0.038 | silmitasertib -0.094 | [2] 0.062 | entospletinib 0.003

AP1S2 (UniProt P56377)
inactive: [1] 0.046 | vorinostat 0.061 | silmitasertib -0.078 | [2] -0.133 | entospletinib -0.034

AP2B1 isoform 2 (UniProt P63010)
inactive: [1] 0.02 | vorinostat 0.059 | silmitasertib 0.023 | [2] -0.002 | entospletinib 0.008

AP1G1 isoform 2 (UniProt O43747)
inactive: [1] -0.019 | vorinostat 0.021 | silmitasertib 0.023 | [2] -0.012 | entospletinib -0.007

AMDHD2 isoform 3 (UniProt Q9Y303)
inactive: [1] 0.038 | vorinostat 0.088 | silmitasertib -0.004 | [2] -0.002 | entospletinib 0.056

ANKFY1 isoform 4 (UniProt Q9P2R3)
inactive: [1] 0.014 | vorinostat 0 | silmitasertib -0.004 | [2] 0.003 | entospletinib 0.027

AKT1S1 isoform 3 (UniProt Q96B36)
inactive: [1] 0.046 | vorinostat 0.067 | silmitasertib 0.015 | [2] -0.08 | entospletinib -0.001

ALG1 (UniProt Q9BT22)
inactive: [1] -0.05 | vorinostat -0.13 | silmitasertib 0.038 | [2] -0.068 | entospletinib 0.032

ALKBH2 (UniProt Q6NS38)
inactive: [1] 0.068 | vorinostat -0.219 | silmitasertib -0.014 | [2] -0.065 | entospletinib -0.091

ALDH1L2 (UniProt Q3SY69)
inactive: [1] 0.017 | vorinostat 0.106 | silmitasertib 0.016 | [2] -0.027 | entospletinib 0.031

AKT1 (UniProt P31749)
inactive: [1] -0.051 | vorinostat -0.192 | silmitasertib -0.012 | [2] -0.024 | entospletinib -0.005

ANO10 (UniProt Q9NW15)
inactive: [1] -0.037 | vorinostat 0.206 | silmitasertib 0.005 | [2] -0.067 | entospletinib -0.019

ANP32B (UniProt Q92688)
inactive: [1] 0.025 | vorinostat 0.072 | silmitasertib 0 | [2] -0.015 | entospletinib 0.013

ANTXR2 isoform 4 (UniProt P58335)
inactive: [1] 0.011 | vorinostat 0.123 | silmitasertib -0.005 | [2] -0.011 | entospletinib 0.01

ANPEP (UniProt P15144)
inactive: [1] -0.111 | vorinostat 0.132 | silmitasertib -0.008 | [2] -0.014 | entospletinib -0.057

ANLN (UniProt Q9NQW6)
inactive: [1] 0.018 | silmitasertib -0.011 | [2] -0.009 | entospletinib 0
active: vorinostat -0.656

ALAD (UniProt P13716)
inactive: [1] 0.037 | vorinostat 0.095 | silmitasertib -0.024 | [2] 0 | entospletinib 0.004

ALG13 (UniProt Q9NP73)
inactive: [1] -0.027 | silmitasertib -0.01 | [2] 0.014 | entospletinib -0.082
active: vorinostat -0.339

AP3B1 (UniProt O00203)
inactive: [1] 0.015 | vorinostat -0.098 | silmitasertib -0.003 | [2] -0.014 | entospletinib 0.015

ANXA2 isoform 2 (UniProt P07355)
inactive: [1] -0.015 | vorinostat 0.023 | silmitasertib -0.015 | [2] 0.003 | entospletinib 0.016
